# Source: the supplement of paper PMC8728848
# Some of the results follow.
# Key:
# Assay in all cases: glycan array binding signal (z-score within array); higher = stronger binding
# Conditions in all cases: glycan notation: IUPAC condensed, linker removed
# [1] = biological target: Fuc(a1-2)Gal(b1-4)GlcNAc(b1-3)Gal(b1-4)GlcNAc(b1-2)Man(a1-3)[Fuc(a1-2)Gal(b1-4)GlcNAc(b1-3)Gal(b1-4)GlcNAc(b1-2)Man(a1-6)]Man(b1-4)GlcNAc(b1-4)GlcNAc
# Outline: (§1)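 Columns mapping to the same glycan were averaged after glycan names were converted to IUPAC-condensed notation. The data come from 3228 arrays in the Consortium for Functional Glycomics database, limited to those with an available protein sequence. Binding is reported as a within-array Z-score averaged across arrays of one protein sequence and across linkers.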
# [2] = biological target: Fuc(a1-2)Gal(b1-4)GlcNAc(b1-3)Gal(b1-4)GlcNAc(b1-3)Gal(b1-4)GlcNAc
# Outline: as §1
# [3] = biological target: Fuc(a1-2)Gal(b1-4)GlcNAc(b1-3)GalNAc
# Outline: as §1
# [4] = biological target: Fuc(a1-2)Gal(b1-4)GlcNAc(b1-3)[Fuc(a1-2)Gal(b1-4)GlcNAc(b1-6)]GalNAc
# Outline: as §1
# [5] = biological target: Fuc(a1-2)Gal(b1-4)GlcNAc(b1-3)[Fuc(a1-3)[Gal(b1-4)]GlcNAc(b1-6)]Gal(b1-4)Glc
# Outline: as §1
# [6] = biological target: Fuc(a1-2)Gal(b1-4)GlcNAc(b1-6)GalNAc
# Outline: as §1
# [7] = biological target: Fuc(a1-2)Gal(b1-4)GlcNAc6S
# Outline: as §1
# [8] = biological target: Fuc(a1-2)Gal(b1-4)[Fuc(a1-3)]GlcNAc
# Outline: as §1
# [9] = biological target: Fuc(a1-2)Gal(b1-4)[Fuc(a1-3)]GlcNAc(b1-2)Man(a1-3)[Fuc(a1-2)Gal(b1-4)[Fuc(a1-3)]GlcNAc(b1-2)Man(a1-6)]Man(b1-4)GlcNAc(b1-4)[Fuc(a1-6)]GlcNAc
# Outline: as §1
# [10] = biological target: Fuc(a1-2)Gal(b1-4)[Fuc(a1-3)]GlcNAc(b1-2)[Fuc(a1-2)Gal(b1-4)[Fuc(a1-3)]GlcNAc(b1-4)]Man(a1-3)[Fuc(a1-2)Gal(b1-4)[Fuc(a1-3)]GlcNAc(b1-2)Man(a1-6)]Man(b1-4)GlcNAc(b1-4)GlcNAc
# Outline: as §1
# [11] = biological target: Fuc(a1-2)Gal(b1-4)[Fuc(a1-3)]GlcNAc(b1-3)Gal(b1-4)[Fuc(a1-3)]GlcNAc
# Outline: as §1
# [12] = biological target: Fuc(a1-2)Gal(b1-4)[Fuc(a1-3)]GlcNAc(b1-3)Gal(b1-4)[Fuc(a1-3)]GlcNAc(b1-3)Gal(b1-4)[Fuc(a1-3)]GlcNAc
# Outline: as §1
# [13] = biological target: Fuc(a1-2)Gal(b1-4)[Fuc(a1-3)]GlcNAc(b1-3)GalNAc
# Outline: as §1
# [14] = biological target: Fuc(a1-2)Gal(b1-4)[Fuc(a1-3)]GlcNAc(b1-3)[Neu5Ac(a2-6)Gal(b1-4)GlcNAc(b1-6)]Gal(b1-4)Glc
# Outline: as §1
# [15] = biological target: Fuc(a1-2)Gal3S(b1-4)GlcNAc
# Outline: as §1
# [16] = biological target: Fuc(a1-2)Gal6S(b1-3)GlcNAc
# Outline: as §1
# [17] = biological target: Fuc(a1-2)Gal6S(b1-3)GlcNAc6S
# Outline: as §1
# Fuc(a1-2)Gal6S(b1-4)Glc = biological target: Fuc(a1-2)Gal6S(b1-4)Glc
# Outline: as §1
# [18] = biological target: Fuc(a1-2)Gal6S(b1-4)Glc6S
# Outline: as §1
# Fuc(a1-2)[Gal(a1-3)]Gal = biological target: Fuc(a1-2)[Gal(a1-3)]Gal
# Outline: as §1
# [19] = biological target: Fuc(a1-2)[Gal(a1-3)]Gal(b1-3)GalNAc
# Outline: as §1
# [20] = biological target: Fuc(a1-2)[Gal(a1-3)]Gal(b1-3)GalNAc(b1-3)Gal(a1-4)Gal(b1-4)Glc
# Outline: as §1
# [21] = biological target: Fuc(a1-2)[Gal(a1-3)]Gal(b1-3)GlcNAc
# Outline: as §1
# [22] = biological target: Fuc(a1-2)[Gal(a1-3)]Gal(b1-3)GlcNAc(b1-2)Man(a1-3)[Fuc(a1-2)[Gal(a1-3)]Gal(b1-3)GlcNAc(b1-2)Man(a1-6)]Man(b1-4)GlcNAc(b1-4)GlcNAc
# Outline: as §1
# [23] = biological target: Fuc(a1-2)[Gal(a1-3)]Gal(b1-3)GlcNAc(b1-2)Man(a1-3)[Fuc(a1-2)[Gal(a1-3)]Gal(b1-3)GlcNAc(b1-2)Man(a1-6)]Man(b1-4)GlcNAc(b1-4)[Fuc(a1-6)]GlcNAc
# Outline: as §1
# [24] = biological target: Fuc(a1-2)[Gal(a1-3)]Gal(b1-3)GlcNAc(b1-3)GalNAc
# Outline: as §1
# [25] = biological target: Fuc(a1-2)[Gal(a1-3)]Gal(b1-3)GlcNAc(b1-6)GalNAc
# Outline: as §1
# [26] = biological target: Fuc(a1-2)[Gal(a1-3)]Gal(b1-4)Glc
# Outline: as §1
# [27] = biological target: Fuc(a1-2)[Gal(a1-3)]Gal(b1-4)GlcNAc
# Outline: as §1
# [28] = biological target: Fuc(a1-2)[Gal(a1-3)]Gal(b1-4)GlcNAc(b1-2)Man
# Outline: as §1
binder,measurement,setting,value
"AntigenI/IIA3VP1 (Streptococcus mutans), C9E3B4 (protein) AANEADYQAKLTAYQTELARVQKANADAKAAYEAAVAANNAANAALTAENTAIKKRNADAKADYEAKLAKYQADLAKYQKDLADYPVKLKAYEDEQASIKAALAELEKHKNEDGNLTEPSAQNLVYDLEPNANLSLTTDGKFLKASAVDDAFSKSTSKAKYDQKILQLDDLDITNLEQSNDVASSMELYGNFGDKAGWSTTVSNNSQVKWGSVLLERGQSATATYTNLQNSYYNGKKISKIVYKYTVDPKSKFQGQKVWLGIFTDPTLGVFASAYTGQVEKNTSIFIKNEFTFYDEDGKPINFDNALLSVASLNREHNSIEMAKDYSGKFVKISGSSIGEKNGMIYATDTLNFKQGEGGSRWTMYKNSQAGSGWDSSDAPNSWYGAGAIKMSGPNNYVTVGATSATNVMPVSDMPVVPGKDNTDGKKPNIWYSLNGKIRAVNVPKVTKEKPTPPVKPTAPTKPTYETEKPLKPAPVAPNYEKEPTPPTRLEHHHHHH",glycan array binding signal (z-score),[1],0.725
same,glycan array binding signal (z-score),[2],0.654
same,glycan array binding signal (z-score),[3],-0.034
same,glycan array binding signal (z-score),[4],0.339
same,glycan array binding signal (z-score),[5],-0.845
same,glycan array binding signal (z-score),[6],1.89
same,glycan array binding signal (z-score),[7],-0.715
same,glycan array binding signal (z-score),[8],0.077
same,glycan array binding signal (z-score),[9],2.56
same,glycan array binding signal (z-score),[10],0.209
same,glycan array binding signal (z-score),[11],0.17
same,glycan array binding signal (z-score),[12],1.5
same,glycan array binding signal (z-score),[13],0.836
same,glycan array binding signal (z-score),[14],-0.89
same,glycan array binding signal (z-score),[15],-1.08
same,glycan array binding signal (z-score),[16],0.47
same,glycan array binding signal (z-score),[17],-0.124
same,glycan array binding signal (z-score),Fuc(a1-2)Gal6S(b1-4)Glc,-0.552
same,glycan array binding signal (z-score),[18],0.254
same,glycan array binding signal (z-score),Fuc(a1-2)[Gal(a1-3)]Gal,-0.228
same,glycan array binding signal (z-score),[19],0.123
same,glycan array binding signal (z-score),[20],-0.958
same,glycan array binding signal (z-score),[21],-0.863
same,glycan array binding signal (z-score),[22],-0.497
same,glycan array binding signal (z-score),[23],-0.592
same,glycan array binding signal (z-score),[24],1.6
same,glycan array binding signal (z-score),[25],0.337
same,glycan array binding signal (z-score),[26],-0.572
same,glycan array binding signal (z-score),[27],-1
same,glycan array binding signal (z-score),[28],-0.528

# Reformatted: results already given
binder | measurement | setting | value
AntigenI/IIA3VP1 (Streptococcus mutans), C9E3B4 (protein) AANEADYQAKLTAYQTELARVQKANADAKAAYEAAVAANNAANAALTAENTAIKKRNADAKADYEAKLAKYQADLAKYQKDLADYPVKLKAYEDEQASIKAALAELEKHKNEDGNLTEPSAQNLVYDLEPNANLSLTTDGKFLKASAVDDAFSKSTSKAKYDQKILQLDDLDITNLEQSNDVASSMELYGNFGDKAGWSTTVSNNSQVKWGSVLLERGQSATATYTNLQNSYYNGKKISKIVYKYTVDPKSKFQGQKVWLGIFTDPTLGVFASAYTGQVEKNTSIFIKNEFTFYDEDGKPINFDNALLSVASLNREHNSIEMAKDYSGKFVKISGSSIGEKNGMIYATDTLNFKQGEGGSRWTMYKNSQAGSGWDSSDAPNSWYGAGAIKMSGPNNYVTVGATSATNVMPVSDMPVVPGKDNTDGKKPNIWYSLNGKIRAVNVPKVTKEKPTPPVKPTAPTKPTYETEKPLKPAPVAPNYEKEPTPPTRLEHHHHHH | glycan array binding signal (z-score) | [9] | 2.56
same | glycan array binding signal (z-score) | [10] | 0.209
